Laboratory results from publication doi:10.1101/2021.12.20.473554.

The chains behind the UniProt entries cited, without tags or fusion partners. Where a name states a change or a piece, a line headed by the entry shows the natural chain unless it says otherwise.
UniProt P31749, whole entry, stated change not applied: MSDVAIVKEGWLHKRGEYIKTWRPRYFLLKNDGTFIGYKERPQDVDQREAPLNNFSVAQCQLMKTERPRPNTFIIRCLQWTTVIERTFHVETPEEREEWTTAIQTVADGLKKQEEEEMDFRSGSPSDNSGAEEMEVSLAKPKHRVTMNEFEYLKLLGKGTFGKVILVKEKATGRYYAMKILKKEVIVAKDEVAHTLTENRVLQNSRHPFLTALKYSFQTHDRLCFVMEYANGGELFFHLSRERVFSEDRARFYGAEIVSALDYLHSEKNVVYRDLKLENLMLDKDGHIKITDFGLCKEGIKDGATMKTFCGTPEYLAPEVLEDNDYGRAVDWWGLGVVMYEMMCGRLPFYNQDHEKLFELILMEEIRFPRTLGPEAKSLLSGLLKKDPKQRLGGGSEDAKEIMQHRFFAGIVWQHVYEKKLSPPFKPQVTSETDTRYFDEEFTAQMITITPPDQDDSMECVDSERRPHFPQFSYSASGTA

Target: HA-Akt1 (pcDNA3-HA-Akt1) (UniProt P31749)
Assay: co-IP

binding | Substance
no binding | Flag-TSC22D4-ΔD2 (from UniProt Q9EQN3) (domain or fragment)
no binding | Flag-TSC22D4-ΔTSC (from UniProt Q9EQN3) (domain or fragment)

Results are given in words; binding and its absence hold for the method and conditions named. In cells and extracts the contact can be indirect.
